Measured values taken from the supplement of paper PMC10849652.
Some of the results follow.

By UniProt entry, the sequences of proteins in these tests, tags left out. Where a name states a change or a piece, a line headed by the entry shows the natural chain unless it says otherwise.
UniProt Q2KHT3: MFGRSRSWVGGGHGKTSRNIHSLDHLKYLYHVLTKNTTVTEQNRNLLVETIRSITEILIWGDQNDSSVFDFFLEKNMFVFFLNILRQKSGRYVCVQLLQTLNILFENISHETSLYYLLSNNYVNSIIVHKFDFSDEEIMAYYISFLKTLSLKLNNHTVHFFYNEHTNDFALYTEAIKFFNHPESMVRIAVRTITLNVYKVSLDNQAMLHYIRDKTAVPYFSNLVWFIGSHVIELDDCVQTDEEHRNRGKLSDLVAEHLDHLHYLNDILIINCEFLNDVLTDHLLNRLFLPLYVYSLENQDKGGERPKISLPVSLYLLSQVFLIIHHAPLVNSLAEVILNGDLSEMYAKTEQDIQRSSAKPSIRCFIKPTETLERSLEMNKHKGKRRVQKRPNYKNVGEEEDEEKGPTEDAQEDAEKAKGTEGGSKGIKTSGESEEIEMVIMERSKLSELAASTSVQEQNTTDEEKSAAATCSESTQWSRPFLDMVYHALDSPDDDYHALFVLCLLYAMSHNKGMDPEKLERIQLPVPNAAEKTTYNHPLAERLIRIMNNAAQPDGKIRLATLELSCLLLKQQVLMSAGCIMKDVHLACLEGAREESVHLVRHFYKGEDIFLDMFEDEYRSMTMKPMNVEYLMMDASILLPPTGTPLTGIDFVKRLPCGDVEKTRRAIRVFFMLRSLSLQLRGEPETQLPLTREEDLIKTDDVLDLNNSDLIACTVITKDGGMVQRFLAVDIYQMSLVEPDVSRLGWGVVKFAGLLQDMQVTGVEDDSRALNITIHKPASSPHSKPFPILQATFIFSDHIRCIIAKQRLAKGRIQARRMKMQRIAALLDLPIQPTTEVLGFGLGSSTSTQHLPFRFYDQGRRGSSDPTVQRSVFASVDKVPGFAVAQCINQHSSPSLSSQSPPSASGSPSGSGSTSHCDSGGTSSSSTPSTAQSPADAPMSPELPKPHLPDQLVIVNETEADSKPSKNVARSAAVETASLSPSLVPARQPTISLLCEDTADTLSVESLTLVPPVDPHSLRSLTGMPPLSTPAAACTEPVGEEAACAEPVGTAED
UniProt P51797: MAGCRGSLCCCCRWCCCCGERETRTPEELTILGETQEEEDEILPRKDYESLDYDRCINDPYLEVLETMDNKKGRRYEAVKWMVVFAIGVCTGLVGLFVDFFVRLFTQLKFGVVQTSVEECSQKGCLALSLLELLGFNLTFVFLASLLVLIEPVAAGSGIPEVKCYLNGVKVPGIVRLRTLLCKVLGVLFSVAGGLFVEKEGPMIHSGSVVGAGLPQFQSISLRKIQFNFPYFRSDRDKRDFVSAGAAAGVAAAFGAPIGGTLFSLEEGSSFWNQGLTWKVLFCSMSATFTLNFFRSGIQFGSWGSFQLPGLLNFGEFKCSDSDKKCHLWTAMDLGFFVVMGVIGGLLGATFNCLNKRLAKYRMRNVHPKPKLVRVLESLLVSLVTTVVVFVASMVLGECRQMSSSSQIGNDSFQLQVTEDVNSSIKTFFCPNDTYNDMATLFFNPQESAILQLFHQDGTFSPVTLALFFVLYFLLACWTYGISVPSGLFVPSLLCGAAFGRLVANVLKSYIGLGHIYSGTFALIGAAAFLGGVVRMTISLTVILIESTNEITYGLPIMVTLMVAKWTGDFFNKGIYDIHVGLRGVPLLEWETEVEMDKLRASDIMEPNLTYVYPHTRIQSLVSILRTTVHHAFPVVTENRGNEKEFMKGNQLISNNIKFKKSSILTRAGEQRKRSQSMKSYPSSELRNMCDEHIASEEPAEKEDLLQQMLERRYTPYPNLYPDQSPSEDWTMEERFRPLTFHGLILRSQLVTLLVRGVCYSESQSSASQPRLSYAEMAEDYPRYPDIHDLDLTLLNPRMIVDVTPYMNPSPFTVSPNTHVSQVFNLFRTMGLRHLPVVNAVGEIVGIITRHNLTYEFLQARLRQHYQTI
UniProt P51798: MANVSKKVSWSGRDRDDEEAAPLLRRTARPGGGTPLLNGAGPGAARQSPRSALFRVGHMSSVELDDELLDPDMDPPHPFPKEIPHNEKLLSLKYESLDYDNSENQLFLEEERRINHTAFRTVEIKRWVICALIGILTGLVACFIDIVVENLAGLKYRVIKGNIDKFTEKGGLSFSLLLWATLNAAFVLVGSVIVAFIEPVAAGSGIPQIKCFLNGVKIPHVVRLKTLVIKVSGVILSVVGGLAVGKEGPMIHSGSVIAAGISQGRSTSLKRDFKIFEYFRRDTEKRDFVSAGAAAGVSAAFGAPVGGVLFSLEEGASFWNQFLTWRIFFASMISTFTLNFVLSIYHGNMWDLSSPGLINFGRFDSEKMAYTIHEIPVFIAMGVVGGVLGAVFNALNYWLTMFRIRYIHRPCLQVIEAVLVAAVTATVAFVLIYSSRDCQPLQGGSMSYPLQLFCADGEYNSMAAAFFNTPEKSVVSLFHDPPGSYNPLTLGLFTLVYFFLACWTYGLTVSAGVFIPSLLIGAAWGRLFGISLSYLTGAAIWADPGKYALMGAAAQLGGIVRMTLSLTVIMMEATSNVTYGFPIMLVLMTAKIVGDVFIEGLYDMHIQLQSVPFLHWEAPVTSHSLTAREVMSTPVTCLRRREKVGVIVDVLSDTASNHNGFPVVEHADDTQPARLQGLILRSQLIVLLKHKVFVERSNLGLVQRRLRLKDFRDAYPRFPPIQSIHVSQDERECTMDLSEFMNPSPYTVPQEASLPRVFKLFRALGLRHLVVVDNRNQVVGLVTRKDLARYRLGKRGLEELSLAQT
UniProt P54105: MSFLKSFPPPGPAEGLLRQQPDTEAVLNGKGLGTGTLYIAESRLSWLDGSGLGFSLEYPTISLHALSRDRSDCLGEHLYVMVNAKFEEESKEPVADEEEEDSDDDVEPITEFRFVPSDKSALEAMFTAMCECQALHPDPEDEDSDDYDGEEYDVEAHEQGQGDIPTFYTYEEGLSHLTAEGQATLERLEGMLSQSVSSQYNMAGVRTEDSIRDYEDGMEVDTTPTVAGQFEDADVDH
UniProt O75503: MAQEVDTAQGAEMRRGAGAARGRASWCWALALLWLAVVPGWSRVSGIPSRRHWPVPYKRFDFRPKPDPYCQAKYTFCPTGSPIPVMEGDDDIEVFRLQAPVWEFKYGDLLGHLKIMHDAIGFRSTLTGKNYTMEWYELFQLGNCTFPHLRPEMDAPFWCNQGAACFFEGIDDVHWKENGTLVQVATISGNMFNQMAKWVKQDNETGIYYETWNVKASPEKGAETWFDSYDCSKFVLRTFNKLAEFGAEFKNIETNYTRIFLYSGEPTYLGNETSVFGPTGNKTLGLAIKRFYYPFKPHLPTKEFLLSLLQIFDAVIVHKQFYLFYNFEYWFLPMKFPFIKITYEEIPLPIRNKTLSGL
UniProt O14967: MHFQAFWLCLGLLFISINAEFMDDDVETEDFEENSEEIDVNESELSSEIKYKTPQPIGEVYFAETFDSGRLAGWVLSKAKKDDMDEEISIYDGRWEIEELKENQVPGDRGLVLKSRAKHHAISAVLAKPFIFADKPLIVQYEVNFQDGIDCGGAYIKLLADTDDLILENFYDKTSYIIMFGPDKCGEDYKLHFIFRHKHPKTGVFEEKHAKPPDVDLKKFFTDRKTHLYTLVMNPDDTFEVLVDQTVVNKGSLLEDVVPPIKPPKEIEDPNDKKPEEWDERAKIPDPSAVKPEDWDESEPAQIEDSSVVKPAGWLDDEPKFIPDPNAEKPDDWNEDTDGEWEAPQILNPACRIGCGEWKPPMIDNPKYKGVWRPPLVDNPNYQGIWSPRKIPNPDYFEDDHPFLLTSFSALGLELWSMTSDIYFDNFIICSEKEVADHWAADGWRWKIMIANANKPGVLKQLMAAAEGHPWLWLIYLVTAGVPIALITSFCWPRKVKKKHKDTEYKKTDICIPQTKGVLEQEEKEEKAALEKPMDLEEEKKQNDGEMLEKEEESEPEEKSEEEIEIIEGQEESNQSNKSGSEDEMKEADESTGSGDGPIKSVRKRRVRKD
UniProt P51790: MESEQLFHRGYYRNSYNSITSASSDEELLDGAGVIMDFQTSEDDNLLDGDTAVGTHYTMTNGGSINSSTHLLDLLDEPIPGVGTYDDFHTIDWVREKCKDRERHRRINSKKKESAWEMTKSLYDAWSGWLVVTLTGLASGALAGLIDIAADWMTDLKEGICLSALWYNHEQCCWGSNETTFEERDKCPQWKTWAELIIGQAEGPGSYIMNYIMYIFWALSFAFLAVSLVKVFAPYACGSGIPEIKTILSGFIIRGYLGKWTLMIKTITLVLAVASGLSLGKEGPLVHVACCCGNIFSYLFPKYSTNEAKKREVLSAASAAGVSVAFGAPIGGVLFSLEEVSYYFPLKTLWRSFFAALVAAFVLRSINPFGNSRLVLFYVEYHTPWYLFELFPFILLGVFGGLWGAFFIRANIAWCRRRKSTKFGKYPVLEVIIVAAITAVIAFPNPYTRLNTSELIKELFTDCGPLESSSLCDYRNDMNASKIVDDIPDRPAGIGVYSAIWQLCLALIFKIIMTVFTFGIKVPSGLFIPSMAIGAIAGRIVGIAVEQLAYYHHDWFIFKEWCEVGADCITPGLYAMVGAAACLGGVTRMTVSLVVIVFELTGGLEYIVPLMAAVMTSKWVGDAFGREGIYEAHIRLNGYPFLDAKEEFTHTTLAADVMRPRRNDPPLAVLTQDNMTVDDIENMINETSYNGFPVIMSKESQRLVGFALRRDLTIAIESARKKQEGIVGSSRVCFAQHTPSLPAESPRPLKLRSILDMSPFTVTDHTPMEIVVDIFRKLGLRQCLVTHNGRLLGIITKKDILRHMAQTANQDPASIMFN
UniProt Q96S66: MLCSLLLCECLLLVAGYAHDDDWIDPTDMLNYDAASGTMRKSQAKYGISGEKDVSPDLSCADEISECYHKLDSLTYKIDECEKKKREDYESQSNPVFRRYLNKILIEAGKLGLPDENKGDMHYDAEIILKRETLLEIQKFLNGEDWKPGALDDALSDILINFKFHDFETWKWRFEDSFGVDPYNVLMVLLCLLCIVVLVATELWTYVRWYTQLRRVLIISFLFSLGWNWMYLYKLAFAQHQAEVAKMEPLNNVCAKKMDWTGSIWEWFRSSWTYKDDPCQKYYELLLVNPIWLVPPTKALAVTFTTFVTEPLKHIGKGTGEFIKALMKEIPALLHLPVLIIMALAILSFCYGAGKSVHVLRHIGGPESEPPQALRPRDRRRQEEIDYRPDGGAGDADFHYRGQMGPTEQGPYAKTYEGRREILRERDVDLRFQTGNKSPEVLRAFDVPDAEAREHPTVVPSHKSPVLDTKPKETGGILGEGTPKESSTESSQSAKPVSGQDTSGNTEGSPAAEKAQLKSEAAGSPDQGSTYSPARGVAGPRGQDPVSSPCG
UniProt Q8N3C7: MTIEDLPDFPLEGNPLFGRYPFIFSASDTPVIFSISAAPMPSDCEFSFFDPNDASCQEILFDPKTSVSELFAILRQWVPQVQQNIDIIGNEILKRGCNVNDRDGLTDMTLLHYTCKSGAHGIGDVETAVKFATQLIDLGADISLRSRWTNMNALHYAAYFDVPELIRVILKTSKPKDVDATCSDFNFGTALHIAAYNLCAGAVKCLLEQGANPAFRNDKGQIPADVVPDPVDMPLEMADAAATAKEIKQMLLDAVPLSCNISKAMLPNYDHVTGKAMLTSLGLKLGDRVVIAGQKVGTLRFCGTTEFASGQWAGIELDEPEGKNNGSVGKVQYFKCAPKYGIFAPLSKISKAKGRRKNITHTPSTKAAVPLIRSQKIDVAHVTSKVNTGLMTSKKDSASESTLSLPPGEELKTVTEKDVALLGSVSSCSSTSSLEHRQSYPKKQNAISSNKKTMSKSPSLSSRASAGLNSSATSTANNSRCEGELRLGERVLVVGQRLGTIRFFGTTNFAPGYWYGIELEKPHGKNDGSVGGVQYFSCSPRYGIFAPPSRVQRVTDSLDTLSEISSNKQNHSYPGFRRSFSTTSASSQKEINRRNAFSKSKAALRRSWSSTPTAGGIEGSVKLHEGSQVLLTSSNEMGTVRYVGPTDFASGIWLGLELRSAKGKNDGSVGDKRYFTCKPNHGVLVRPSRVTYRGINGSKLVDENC
UniProt Q86WW8: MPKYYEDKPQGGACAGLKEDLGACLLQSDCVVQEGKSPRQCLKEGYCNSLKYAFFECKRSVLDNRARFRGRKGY

Tests used:
Assay in all cases: log2 fold change, soluble protein after heating vs DMSO (PISA); higher = thermal stabilisation; K562 cells, 10 uM, 30 min; active = over 0.2 and 3.5 SD of the protein, either way, in both replicates (recomputed)
[1] = compound: COC1=CC=C(C=C1)CN2C=CC3=C2C=C(C=C3)C(=O)NO
Method in brief: (§1)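 Thermal stability values are relative to control samples and come from duplicates. They are expressed as log2 fold changes. For measurement, K562 cells (2×10^6 cells/mL) received 10 μM compound for 30 min, and aliquots were heated for 3 min over 48°C-58°C, pooled, and extracted at 4°C in PBS with 0.5% NP-40. Soluble protein, the supernatant after 21,000xg for 90 min, was quantified by TMTpro 16plex LC-MS/MS with equalised channel sums.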

filanesib = compound: CON(C)C(=O)N1N=C(c2cc(F)ccc2F)S[C@@]1(CCCN)c1ccccc1 [filanesib]
Method in brief: as §1

zotarolimus = compound: CO[C@H]1C[C@@H]2CC[C@@H](C)[C@@](O)(O2)C(=O)C(=O)N2CCCC[C@H]2C(=O)O[C@H]([C@H](C)C[C@@H]2CC[C@H](n3cnnn3)[C@H](OC)C2)CC(=O)[C@H](C)/C=C(\C)[C@@H](O)[C@@H](OC)C(=O)[C@H](C)C[C@H](C)/C=C/C=C/C=C/1C [zotarolimus]
Method in brief: as §1

idasanutlin = compound: COc1cc(C(=O)O)ccc1NC(=O)[C@@H]1N[C@@H](CC(C)(C)C)[C@](C#N)(c2ccc(Cl)cc2F)[C@H]1c1cccc(Cl)c1F [idasanutlin]
Method in brief: as §1

alisertib = compound: COc1cc(Nc2ncc3c(n2)-c2ccc(Cl)cc2C(c2c(F)cccc2OC)=NC3)ccc1C(=O)O [alisertib]
Method in brief: as §1

[2] = compound: COc1cc2nc(-c3cc(F)ccc3O)nc(N[C@@H]3CNC[C@H]3C(C)(C)O)c2cc1OC
Method in brief: as §1

gefitinib = compound: COc1cc2ncnc(Nc3ccc(F)c(Cl)c3)c2cc1OCCCN1CCOCC1 [gefitinib]
Method in brief: as §1

[3] = compound: COc1cccc2cc(-c3nc([C@H]4CC[C@H](C(=O)O)CC4)n4ncnc(N)c34)[nH]c12
Method in brief: as §1

lapatinib = compound: CS(=O)(=O)CCNCc1ccc(-c2ccc3ncnc(Nc4ccc(OCc5cccc(F)c5)c(Cl)c4)c3c2)o1 [lapatinib]
Method in brief: as §1

[4] = compound: CS(=O)(=O)c1ccc(-c2cnc(N)c(C(=O)Nc3ccccc3)n2)cc1
Method in brief: as §1

crizotinib = compound: C[C@@H](Oc1cc(-c2cnn(C3CCNCC3)c2)cnc1N)c1c(Cl)ccc(F)c1Cl [crizotinib]
Method in brief: as §1

[5] = compound: C[C@@H]1COCCN1C2=NC(=NC(=C2)C3(CC3)S(=O)(=O)C)C4=C5C=CNC5=CC=C4
Method in brief: as §1

[6] = compound: C[C@H](C1=CC=C(C=C1)C(=O)NC2=C3C=CNC3=NC=C2)N
Method in brief: as §1

duvelisib = compound: C[C@H](Nc1ncnc2nc[nH]c12)c1cc2cccc(Cl)c2c(=O)n1-c1ccccc1 [duvelisib]
Method in brief: as §1

gandotinib = compound: Cc1cc(Nc2cc(CN3CCOCC3)c3nc(C)c(Cc4ccc(Cl)cc4F)n3n2)n[nH]1 [gandotinib]
Method in brief: as §1

tozasertib = compound: Cc1cc(Nc2cc(N3CCN(C)CC3)nc(Sc3ccc(NC(=O)C4CC4)cc3)n2)n[nH]1 [tozasertib]
Method in brief: as §1

[7] = compound: Cc1cc(SCc2sc(-c3ccc(C(F)(F)F)cc3)nc2C)ccc1OCC(=O)O
Method in brief: as §1

doramapimod = compound: Cc1ccc(-n2nc(C(C)(C)C)cc2NC(=O)Nc2ccc(OCCN3CCOCC3)c3ccccc23)cc1 [doramapimod]
Method in brief: as §1

ispinesib = compound: Cc1ccc(C(=O)N(CCCN)[C@@H](c2nc3cc(Cl)ccc3c(=O)n2Cc2ccccc2)C(C)C)cc1 [ispinesib]
Method in brief: as §1

pictilisib = compound: CS(=O)(=O)N1CCN(Cc2cc3nc(-c4cccc5[nH]ncc45)nc(N4CCOCC4)c3s2)CC1 [pictilisib]
Method in brief: as §1

| Target | log2 fold change [1] | log2 fold change (filanesib) | log2 fold change (zotarolimus) | log2 fold change (idasanutlin) | log2 fold change (alisertib) | log2 fold change [2] | log2 fold change (gefitinib) | log2 fold change [3] | log2 fold change (lapatinib) | log2 fold change [4] | log2 fold change (crizotinib) | log2 fold change [5] | log2 fold change [6] | log2 fold change (duvelisib) | log2 fold change (gandotinib) | log2 fold change (tozasertib) | log2 fold change [7] | log2 fold change (doramapimod) | log2 fold change (ispinesib) | log2 fold change (pictilisib) |
| --- | --- | --- | --- | --- | --- | --- | --- | --- | --- | --- | --- | --- | --- | --- | --- | --- | --- | --- | --- | --- |
| CLEC16A (UniProt Q2KHT3) | inactive: -0.011 | inactive: 0.091 | inactive: -0.027 | inactive: -0.001 | inactive: -0.092 | inactive: 0.003 | inactive: -0.029 | inactive: 0.005 | inactive: -0.012 | inactive: 0.026 | inactive: -0.026 | inactive: 0.092 | inactive: 0.019 | inactive: -0.03 | inactive: 0.025 | inactive: -0.017 | inactive: -0.055 | inactive: 0.022 | inactive: 0.034 | – |
| CLCN6 isoform 5 (UniProt P51797) | inactive: 0.101 | inactive: -0.074 | inactive: -0.116 | inactive: -0.017 | inactive: -0.169 | inactive: -0.002 | inactive: -0.071 | inactive: 0.096 | inactive: -0.068 | inactive: -0.093 | inactive: -0.372 | inactive: -0.017 | inactive: 0.17 | inactive: 0.107 | inactive: 0.061 | – | inactive: 0.09 | inactive: 0.052 | inactive: -0.457 | – |
| CLCN7 (UniProt P51798) | inactive: 0.112 | active: -0.294 | inactive: 0.008 | inactive: -0.006 | inactive: -0.084 | inactive: -0.077 | inactive: -0.144 | inactive: 0.023 | inactive: -0.011 | inactive: -0.037 | active: -0.814 | inactive: 0.018 | inactive: -0.091 | – | inactive: -0.193 | – | inactive: 0.028 | inactive: -0.008 | active: -0.952 | – |
| CLNS1A (UniProt P54105) | inactive: 0.055 | inactive: -0.036 | inactive: 0.019 | inactive: 0.028 | inactive: -0.084 | inactive: 0.016 | inactive: 0.023 | inactive: -0.013 | inactive: -0.005 | inactive: 0.012 | inactive: 0.053 | inactive: 0.021 | inactive: -0.051 | inactive: 0.008 | inactive: 0.018 | inactive: 0.046 | inactive: 0.064 | inactive: -0.006 | inactive: 0.066 | – |
| CLN5 (UniProt O75503) | inactive: 0.021 | inactive: -0.385 | inactive: 0.075 | inactive: 0.049 | inactive: 0.265 | inactive: -0.65 | inactive: -0.341 | inactive: 0.27 | inactive: -0.028 | inactive: 0.136 | inactive: -0.733 | inactive: 0.06 | inactive: 0.046 | – | inactive: -0.077 | – | inactive: 0.073 | inactive: 0.044 | – | – |
| CLGN (UniProt O14967) | inactive: 0.018 | inactive: 0.141 | inactive: -0.057 | inactive: -0.016 | inactive: -0.007 | inactive: 0.001 | inactive: -0.047 | inactive: -0.056 | inactive: -0.079 | inactive: -0.029 | inactive: -0.098 | inactive: -0.042 | inactive: 0.007 | inactive: -0.104 | inactive: 0.028 | inactive: -0.003 | inactive: 0.005 | inactive: 0.042 | inactive: -0.045 | – |
| CLPTM1 (UniProt O96005) | inactive: 0.052 | inactive: -0.094 | inactive: 0.041 | inactive: -0.061 | inactive: -0.05 | inactive: -0.109 | inactive: 0.014 | inactive: -0.02 | inactive: 0.046 | inactive: 0.015 | inactive: -0.036 | inactive: -0.048 | inactive: 0.071 | inactive: 0.003 | inactive: -0.032 | inactive: 0.025 | inactive: 0.019 | inactive: 0.02 | inactive: -0.16 | – |
| CLPX (UniProt O76031) | inactive: 0.077 | inactive: -0.07 | inactive: -0.052 | inactive: -0.007 | inactive: -0.026 | inactive: -0.017 | inactive: 0.019 | inactive: 0.021 | inactive: 0.014 | inactive: 0.061 | active: 0.291 | inactive: 0.027 | inactive: 0.004 | – | inactive: 0.003 | – | inactive: -0.05 | inactive: -0.002 | inactive: 0.018 | – |
| CLUH, A0A494C0R8 | inactive: 0.131 | inactive: 0.168 | inactive: -0.065 | inactive: 0.027 | inactive: 0.007 | inactive: -0.024 | inactive: 0.078 | inactive: -0.227 | inactive: -0.011 | inactive: 0.055 | active: -0.575 | inactive: 0.205 | inactive: 0.037 | active: 0.646 | inactive: -0.214 | – | inactive: -0.031 | inactive: 0.113 | inactive: -0.028 | – |
| CLCN3 (UniProt P51790) | inactive: -0.158 | inactive: -0.12 | inactive: -0.099 | inactive: -0.095 | inactive: -0.016 | inactive: 0.031 | inactive: 0.045 | inactive: 0.058 | inactive: -0.06 | inactive: -0.05 | inactive: -0.191 | inactive: 0.012 | inactive: -0.003 | – | inactive: -0.062 | – | inactive: -0.006 | inactive: -0.03 | active: -0.549 | – |
| CLPB isoform 2 (UniProt Q9H078) | inactive: -0.036 | inactive: -0.038 | inactive: -0.021 | inactive: -0.041 | inactive: -0.053 | inactive: -0.138 | inactive: -0.017 | inactive: 0.021 | inactive: 0.038 | inactive: 0.062 | inactive: -0.119 | inactive: 0.044 | inactive: 0 | inactive: -0.035 | inactive: -0.07 | inactive: -0.017 | inactive: 0.076 | inactive: 0.022 | inactive: -0.046 | – |
| CLCC1 (UniProt Q96S66) | inactive: -0.041 | inactive: -0.075 | inactive: -0.022 | inactive: -0.033 | inactive: 0 | inactive: -0.002 | inactive: -0.021 | inactive: 0.083 | inactive: -0.034 | inactive: -0.001 | inactive: 0.02 | inactive: 0.043 | inactive: -0.055 | inactive: 0.051 | inactive: -0.091 | inactive: -0.017 | inactive: 0.012 | inactive: 0 | inactive: 0.025 | – |
| CLCN2 (UniProt P51788) | inactive: 0.075 | inactive: 0.004 | inactive: -0.047 | inactive: -0.006 | inactive: -0.017 | inactive: -0.005 | inactive: 0.171 | inactive: -0.005 | inactive: -0.005 | inactive: 0.012 | inactive: 0.009 | inactive: 0.018 | inactive: -0.039 | inactive: 0.058 | inactive: 0.086 | – | inactive: -0.102 | inactive: 0.059 | inactive: -0.086 | – |
| CLIP4 (UniProt Q8N3C7) | inactive: 0.022 | inactive: -0.103 | inactive: -0.018 | inactive: 0.045 | inactive: 0.269 | inactive: 0.005 | inactive: 0.013 | inactive: -0.194 | inactive: -0.166 | inactive: 0.032 | inactive: 0.131 | inactive: 0.057 | inactive: -0.029 | inactive: 0.338 | inactive: -0.031 | inactive: -0.058 | inactive: -0.009 | inactive: -0.066 | inactive: 0.029 | – |
| COA5 (UniProt Q86WW8) | inactive: 0.094 | – | inactive: -0.126 | inactive: 0.221 | – | – | – | – | – | – | inactive: -0.273 | inactive: 0.12 | inactive: -0.233 | inactive: 0.039 | – | – | inactive: 0.058 | inactive: -0.042 | – | – |
| COG1 (UniProt Q8WTW3) | inactive: 0.179 | inactive: 0.101 | inactive: 0.107 | – | – | inactive: 0.096 | – | – | inactive: -0.053 | inactive: -0.034 | inactive: -0.01 | – | inactive: 0.227 | inactive: 0.029 | inactive: 0.076 | inactive: -0.006 | inactive: 0.117 | inactive: 0.193 | inactive: -0.052 | inactive: -0.114 |

2 entries picked at random from the list so far:

| Target | log2 fold change [1] | log2 fold change (filanesib) | log2 fold change (zotarolimus) | log2 fold change (idasanutlin) | log2 fold change (alisertib) | log2 fold change [2] | log2 fold change (gefitinib) | log2 fold change [3] | log2 fold change (lapatinib) | log2 fold change [4] | log2 fold change (crizotinib) | log2 fold change [5] | log2 fold change [6] | log2 fold change (duvelisib) | log2 fold change (gandotinib) | log2 fold change (tozasertib) | log2 fold change [7] | log2 fold change (doramapimod) | log2 fold change (ispinesib) | log2 fold change (pictilisib) |
| --- | --- | --- | --- | --- | --- | --- | --- | --- | --- | --- | --- | --- | --- | --- | --- | --- | --- | --- | --- | --- |
| CLCN6 isoform 5 (UniProt P51797) | inactive: 0.101 | inactive: -0.074 | inactive: -0.116 | inactive: -0.017 | inactive: -0.169 | inactive: -0.002 | inactive: -0.071 | inactive: 0.096 | inactive: -0.068 | inactive: -0.093 | inactive: -0.372 | inactive: -0.017 | inactive: 0.17 | inactive: 0.107 | inactive: 0.061 | – | inactive: 0.09 | inactive: 0.052 | inactive: -0.457 | – |
| CLEC16A (UniProt Q2KHT3) | inactive: -0.011 | inactive: 0.091 | inactive: -0.027 | inactive: -0.001 | inactive: -0.092 | inactive: 0.003 | inactive: -0.029 | inactive: 0.005 | inactive: -0.012 | inactive: 0.026 | inactive: -0.026 | inactive: 0.092 | inactive: 0.019 | inactive: -0.03 | inactive: 0.025 | inactive: -0.017 | inactive: -0.055 | inactive: 0.022 | inactive: 0.034 | – |
